In assay [1] the target is T1, RqcH C-terminally tagged with a FLAG3 epitope (B. subtilis) (UniProt O34693).
T1 sequence: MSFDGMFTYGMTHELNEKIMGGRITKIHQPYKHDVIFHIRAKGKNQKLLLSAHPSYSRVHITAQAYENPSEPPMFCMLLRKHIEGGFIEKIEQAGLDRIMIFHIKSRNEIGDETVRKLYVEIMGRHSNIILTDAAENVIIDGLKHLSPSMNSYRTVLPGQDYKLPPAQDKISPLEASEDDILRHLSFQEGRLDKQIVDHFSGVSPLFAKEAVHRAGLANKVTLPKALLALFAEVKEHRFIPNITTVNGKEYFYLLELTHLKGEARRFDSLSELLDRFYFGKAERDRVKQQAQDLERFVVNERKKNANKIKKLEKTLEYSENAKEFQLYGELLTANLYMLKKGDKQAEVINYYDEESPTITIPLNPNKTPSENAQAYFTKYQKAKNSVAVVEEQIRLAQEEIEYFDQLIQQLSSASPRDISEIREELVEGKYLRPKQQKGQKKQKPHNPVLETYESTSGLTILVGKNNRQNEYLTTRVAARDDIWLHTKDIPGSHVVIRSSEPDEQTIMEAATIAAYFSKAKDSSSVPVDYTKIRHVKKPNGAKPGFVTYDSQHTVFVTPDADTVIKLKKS
In words: affinity purification with mass spectrometry.

Assay [2] has as its target T2, YabO with a C-terminal FLAG3-tag (B. subtilis) (UniProt P37557).
T2 sequence: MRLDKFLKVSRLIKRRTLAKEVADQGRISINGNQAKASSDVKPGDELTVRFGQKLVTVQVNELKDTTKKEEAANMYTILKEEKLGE
Description: affinity purification with mass spectrometry.

Results are given in words; binding and its absence hold for the method and conditions named. In cells and extracts the contact can be indirect. A yes stands for co-enrichment or nearness to the bait. Other partners may have been found. Tags and fused reporters may be left off the sequences shown.

Our source for the binding values is doi:10.1101/2020.09.03.281279.

B1: YabO (endogenous, found in the RqcH-FLAG3 pull-out) (protein, UniProt P37557 1-86)
chain: T2 sequence
Consider B1, for which the binding result in assay [1] is “binds”.

B2: RqcH (endogenous, found in the YabO-FLAG3 pull-out) (protein, UniProt O34693 1-570)
chain: T1 sequence
On to B2, for which the binding result in assay [2] is listed as “binds”.

B3: ribosomal silencing factor RsfS (protein, UniProt P54457 1-118)
chain: MNQKSILKIAAAACDDKRAEDILALDMEGISLVADYFLICHGNSDKQVQAIAREIKDQADENGIQVKKMEGFDEARWVLVDLGDVVVHVFHKDERSYYNLEKLWGDAPLADLDFGMNQ
Turning to B3, in assay [2], the binding result is reported as “binds”.
